# Measured values from US6525059B1, “Substituted pyrazoles as p38 kinase inhibitors” (G. D. Searle & Company, priority 1998, dated 2003).
# At least one read-out could not be matched to a standard name with certainty.
# Test system: TNF-α
# Experiment: Rat assay: LPS-challenged rats, serum TNF-α by ELISA
# Type: in vivo
# Conditions: Table 9, dose 20 mg/kg
# Procedure: The efficacy of the novel compounds in blocking the production of TNF also was evaluated using a model based on rats challenged with LPS. Male Harlen Lewis rats [Sprague Dawley Co.] were used in this model. Each rat weighed approximately 300 g and was fasted overnight prior to testing. Compounds administration was typically by oral gavage (although intraperitoneal, subcutaneous and intravenous administration were also used in a few instances) 1 to 24 hours prior to the LPS challenge. Rats were administered 30 μg/kg LPS [salmonella typhosa, Sigma Co.] intravenously via the tail vein. Blood was collected via heart puncture 1 hour after the LPS challenge. Serum samples were stored at −20° C. until quantitative analysis of TNF-α by Enzyme Linked-Immuno-Sorbent Assay (“ELISA”) [Biosource]. Additional details of the assay are set forth in Perretti, M., et al., Br. J. Pharmacol. (1993), 110, 868-874, which is incorporated by reference in this application.
# In vivo assessment of the ability of the compounds to inhibit LPS-stimulated TNF release in the rat is shown in the column identified as:
# wherein in the dose is milligram per kilogram (mpk) administered by oral gavage and the predose time indicates the number of hours before LPS challenge when the compound is administered.
row,SMILES,Rat LPS Assay % Inhibition
1,"CCN(CC)CCCC(C)Nc1nccc(-c2c[nH]nc2-c2ccc(F)cc2)n1 (stereo not drawn) [Example A-366, N1,N1-diethyl-N4-[4-[3-(4-fluorophenyl)-1H-pyrazol-4-yl]-2-pyrimidinyl]-1,4-pentanediamine]",97 (20) %
2,"CCN(CC)CCCC(C)Nc1cc(-c2c[nH]nc2-c2ccc(F)cc2)ccn1 (stereo not drawn) [Example A-377, N1,N1-diethyl-N4-[4-[3-(4-fluorophenyl)-1H-pyrazol-4-yl]-2-pyridinyl]-1,4-pentanediamine]",96 (20) %
3,"C[C@@H](O)CNc1cc(-c2c[nH]nc2-c2ccc(F)cc2)ccn1 [Example A-368, (2R)-1-[[4-[3-(4-fluorophenyl)-1H-pyrazol-4-yl]-2-pyridinyl]amino]-2-propanol]",97 (20) %
